Data taken from PubChem BioAssay AID1080, deposited by Emory University Molecular Libraries Screening Center (2008).

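A counter-screen in EP4-overexpressing cells measuring cyclic AMP with a time-resolved FRET kit under weak PGE2 stimulation.
Compounds were tested at 20 µM final. A low (about EC15) PGE2 dose was present.
Percent cAMP induction as a fraction of the 1 µM PGE2 response, averaged over three replicates; a higher value means more cAMP.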

Values are in %.
Common to all entries: measured here: EP4 receptor counter-screen.
This is a side read-out of the assay, for part of the compounds, not drawn at random.

SMILES: CC1(C)Cc2c(C#N)c(N3CCCC3)nc(-c3ccco3)c2CO1
setting: percent of 1 uM PGE2 response; plus low (about EC15) PGE2 agonist
cAMP induction (%): -1.5

SMILES: COc1cc(OC)c2c(OC)c(-c3ccc4c(c3)OCO4)c(=O)oc2c1
setting: percent of 1 uM PGE2 response; plus low (about EC15) PGE2 agonist
cAMP induction (%): 0.6067

SMILES: Nc1cccc(OCc2nc(N)nc(N)c2-c2ccc(Cl)cc2)c1
setting: percent of 1 uM PGE2 response; plus low (about EC15) PGE2 agonist
cAMP induction (%): 2.757

SMILES: Cc1onc(-c2ccccc2)c1C(=O)N(Cc1ccco1)Cc1cccs1
setting: percent of 1 uM PGE2 response; plus low (about EC15) PGE2 agonist
cAMP induction (%): -5.033

SMILES: COc1ccc(CN2C(=O)CN=C2Nc2cc(C)ccc2C)cc1
setting: percent of 1 uM PGE2 response; plus low (about EC15) PGE2 agonist
cAMP induction (%): 7.043

SMILES: Cc1onc(-c2ccccc2Cl)c1-c1nc(-c2ccncc2)no1
setting: percent of 1 uM PGE2 response; plus low (about EC15) PGE2 agonist
cAMP induction (%): -6.17

SMILES: O=C(NCc1ccco1)C(c1cccs1)N(C(=O)Cc1cccs1)c1ccccc1 (stereo not drawn)
setting: percent of 1 uM PGE2 response; plus low (about EC15) PGE2 agonist
cAMP induction (%): 3.56

SMILES: Cc1ccnc(NS(=O)(=O)c2cccs2)c1
setting: percent of 1 uM PGE2 response; plus low (about EC15) PGE2 agonist
cAMP induction (%): -3.09

SMILES: Cc1nc2c3cc(F)ccc3n(Cc3ccccc3)c2s1
setting: percent of 1 uM PGE2 response; plus low (about EC15) PGE2 agonist
cAMP induction (%): 0.3133

SMILES: CCOC(=O)C1=C(C)N(C)C(C)=C(C(=O)OCC)C1c1ccsc1
setting: percent of 1 uM PGE2 response; plus low (about EC15) PGE2 agonist
cAMP induction (%): -0.2267

SMILES: Cc1ccc(-n2nc3c(c2NC(=O)c2ccc(Br)o2)CSC3)c(C)c1
setting: percent of 1 uM PGE2 response; plus low (about EC15) PGE2 agonist
cAMP induction (%): -6.433

SMILES: Cc1nn2c(N3CCCC3)cc(C(C)C)nc2c1-c1ccccc1
setting: percent of 1 uM PGE2 response; plus low (about EC15) PGE2 agonist
cAMP induction (%): 2.127

SMILES: COc1cc2c(cc1OC)CN(c1ccc(-c3ccccc3OC)nn1)CC2
setting: percent of 1 uM PGE2 response; plus low (about EC15) PGE2 agonist
cAMP induction (%): -13.91

SMILES: Cc1ccc(S(=O)(=O)c2c(C)cc(C)nc2N2CCCCC2)cc1
setting: percent of 1 uM PGE2 response; plus low (about EC15) PGE2 agonist
cAMP induction (%): -0.9533

SMILES: CCOC(=O)c1c(NC(=O)CSc2ncnc3[nH]ncc23)sc2c1CCC(C)C2 (stereo not drawn)
setting: percent of 1 uM PGE2 response; plus low (about EC15) PGE2 agonist
cAMP induction (%): -2.293

SMILES: COc1ccc(-c2nnc3ccc(SCC(=O)Nc4nc5ccccc5s4)nn23)cc1OC
setting: percent of 1 uM PGE2 response; plus low (about EC15) PGE2 agonist
cAMP induction (%): 26.59

SMILES: Cc1ccc2c3c(cccc13)-c1ccccc1C2=O
setting: percent of 1 uM PGE2 response; plus low (about EC15) PGE2 agonist
cAMP induction (%): 7.293

SMILES: Brc1ccc(Cn2c(-c3ccc(Br)o3)nc3ccccc32)o1
setting: percent of 1 uM PGE2 response; plus low (about EC15) PGE2 agonist
cAMP induction (%): -10.23

SMILES: O=C(Nc1ccc2c(c1)OCO2)c1cccc2c1C(=O)N(C1CCCCC1)C2
setting: percent of 1 uM PGE2 response; plus low (about EC15) PGE2 agonist
cAMP induction (%): 10.88

SMILES: CCOC(=O)c1sc(NC(=O)C(CC)OC(=O)C(CC(C)C)NC(=O)c2ccccc2)nc1C (stereo not drawn)
setting: percent of 1 uM PGE2 response; plus low (about EC15) PGE2 agonist
cAMP induction (%): -9.777